Laboratory results published in paper PMC9127577.
These are yes or no findings as the source states them, for the method shown. In cells and extracts the contact can be indirect. Here binding means that the protein was enriched with, or labelled near, the bait; the list need not be complete.

Amino acid sequences for entries named in this document (tags omitted). A change or cut given only in a name is not applied to a line headed by its entry. Chains listed by the source or under a name are the forms on record and can include a tag or linker.
endogenous RIF1 (replication timing regulatory factor 1) (Q5UIP0-2, form named): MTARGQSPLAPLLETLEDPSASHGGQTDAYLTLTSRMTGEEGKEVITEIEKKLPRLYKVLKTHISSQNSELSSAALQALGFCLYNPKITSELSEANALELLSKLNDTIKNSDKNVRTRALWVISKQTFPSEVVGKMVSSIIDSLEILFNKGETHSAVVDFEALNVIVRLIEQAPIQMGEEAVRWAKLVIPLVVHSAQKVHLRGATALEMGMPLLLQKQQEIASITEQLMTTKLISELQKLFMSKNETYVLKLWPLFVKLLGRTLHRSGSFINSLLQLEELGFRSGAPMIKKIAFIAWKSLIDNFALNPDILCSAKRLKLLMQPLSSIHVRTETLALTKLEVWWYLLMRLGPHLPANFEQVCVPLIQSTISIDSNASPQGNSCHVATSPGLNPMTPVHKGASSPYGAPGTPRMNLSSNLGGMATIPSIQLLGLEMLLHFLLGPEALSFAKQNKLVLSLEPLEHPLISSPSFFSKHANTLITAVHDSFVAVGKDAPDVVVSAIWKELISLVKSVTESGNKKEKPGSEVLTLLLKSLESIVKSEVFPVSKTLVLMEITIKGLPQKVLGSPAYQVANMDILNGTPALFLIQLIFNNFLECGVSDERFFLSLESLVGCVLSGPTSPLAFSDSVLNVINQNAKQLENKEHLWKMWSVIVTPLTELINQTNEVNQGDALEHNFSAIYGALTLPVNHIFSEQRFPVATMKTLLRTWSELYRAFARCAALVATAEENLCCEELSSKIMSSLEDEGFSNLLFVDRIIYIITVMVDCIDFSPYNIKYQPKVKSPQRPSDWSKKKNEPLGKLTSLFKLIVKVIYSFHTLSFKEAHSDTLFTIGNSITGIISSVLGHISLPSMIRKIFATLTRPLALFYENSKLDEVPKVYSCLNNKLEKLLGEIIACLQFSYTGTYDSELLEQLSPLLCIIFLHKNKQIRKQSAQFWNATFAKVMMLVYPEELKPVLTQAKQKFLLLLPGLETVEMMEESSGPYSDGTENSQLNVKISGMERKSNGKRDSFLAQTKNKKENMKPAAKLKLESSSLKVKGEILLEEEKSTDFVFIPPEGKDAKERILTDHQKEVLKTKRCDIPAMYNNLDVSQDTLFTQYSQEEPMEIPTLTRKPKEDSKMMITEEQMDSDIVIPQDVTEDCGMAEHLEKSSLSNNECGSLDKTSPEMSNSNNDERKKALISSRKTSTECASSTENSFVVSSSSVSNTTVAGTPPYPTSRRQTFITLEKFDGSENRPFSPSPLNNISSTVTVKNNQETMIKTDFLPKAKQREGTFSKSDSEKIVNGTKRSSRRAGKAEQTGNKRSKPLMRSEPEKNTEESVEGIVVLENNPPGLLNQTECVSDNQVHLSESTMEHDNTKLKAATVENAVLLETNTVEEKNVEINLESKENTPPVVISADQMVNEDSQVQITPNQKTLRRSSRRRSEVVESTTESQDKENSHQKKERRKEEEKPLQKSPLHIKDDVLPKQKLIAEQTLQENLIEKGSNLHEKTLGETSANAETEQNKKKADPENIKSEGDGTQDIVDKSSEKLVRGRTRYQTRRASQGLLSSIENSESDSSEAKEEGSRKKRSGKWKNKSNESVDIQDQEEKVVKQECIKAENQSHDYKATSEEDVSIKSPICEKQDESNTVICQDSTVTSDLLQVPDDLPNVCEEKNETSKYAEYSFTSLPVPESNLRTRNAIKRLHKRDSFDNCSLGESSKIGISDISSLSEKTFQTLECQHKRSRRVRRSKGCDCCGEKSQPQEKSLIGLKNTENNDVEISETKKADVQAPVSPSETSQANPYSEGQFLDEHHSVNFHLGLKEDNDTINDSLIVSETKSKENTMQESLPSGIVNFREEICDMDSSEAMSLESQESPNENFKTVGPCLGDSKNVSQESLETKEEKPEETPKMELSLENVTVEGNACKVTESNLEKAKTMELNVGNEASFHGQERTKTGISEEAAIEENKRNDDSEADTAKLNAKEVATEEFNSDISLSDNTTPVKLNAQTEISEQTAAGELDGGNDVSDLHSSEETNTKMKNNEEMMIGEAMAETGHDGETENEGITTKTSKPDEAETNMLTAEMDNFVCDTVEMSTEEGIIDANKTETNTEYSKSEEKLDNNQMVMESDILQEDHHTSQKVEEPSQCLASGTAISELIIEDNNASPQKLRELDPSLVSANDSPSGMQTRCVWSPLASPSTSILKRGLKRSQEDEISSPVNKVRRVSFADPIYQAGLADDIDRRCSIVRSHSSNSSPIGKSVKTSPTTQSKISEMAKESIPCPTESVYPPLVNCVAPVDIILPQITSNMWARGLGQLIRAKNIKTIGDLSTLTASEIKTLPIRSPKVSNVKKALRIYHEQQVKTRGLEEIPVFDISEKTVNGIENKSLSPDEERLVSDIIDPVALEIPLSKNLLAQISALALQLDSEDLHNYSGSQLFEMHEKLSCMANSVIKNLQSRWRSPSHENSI
UniProt P62140: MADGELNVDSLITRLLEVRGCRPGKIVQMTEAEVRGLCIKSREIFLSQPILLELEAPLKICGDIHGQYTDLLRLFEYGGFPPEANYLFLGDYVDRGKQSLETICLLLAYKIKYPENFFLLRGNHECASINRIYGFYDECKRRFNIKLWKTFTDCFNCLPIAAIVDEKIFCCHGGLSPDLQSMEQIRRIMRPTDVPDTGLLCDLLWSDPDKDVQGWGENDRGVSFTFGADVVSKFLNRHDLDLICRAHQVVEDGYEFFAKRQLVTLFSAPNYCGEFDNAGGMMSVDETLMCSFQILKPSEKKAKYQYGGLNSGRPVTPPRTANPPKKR
UniProt Q9Y294: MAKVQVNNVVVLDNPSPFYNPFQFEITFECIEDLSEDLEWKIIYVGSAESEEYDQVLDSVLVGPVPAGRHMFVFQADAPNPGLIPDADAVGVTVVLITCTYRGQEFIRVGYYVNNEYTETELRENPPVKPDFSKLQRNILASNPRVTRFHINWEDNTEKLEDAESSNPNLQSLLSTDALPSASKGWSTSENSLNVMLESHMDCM
UniProt P62136: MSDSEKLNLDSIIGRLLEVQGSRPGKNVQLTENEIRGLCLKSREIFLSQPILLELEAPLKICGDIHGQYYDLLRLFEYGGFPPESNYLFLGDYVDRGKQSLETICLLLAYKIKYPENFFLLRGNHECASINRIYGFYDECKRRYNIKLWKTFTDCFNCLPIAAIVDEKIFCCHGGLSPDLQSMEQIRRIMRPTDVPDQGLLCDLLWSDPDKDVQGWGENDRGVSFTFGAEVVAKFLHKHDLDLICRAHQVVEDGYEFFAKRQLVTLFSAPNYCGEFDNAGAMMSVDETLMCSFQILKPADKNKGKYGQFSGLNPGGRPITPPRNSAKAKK
UniProt Q12888: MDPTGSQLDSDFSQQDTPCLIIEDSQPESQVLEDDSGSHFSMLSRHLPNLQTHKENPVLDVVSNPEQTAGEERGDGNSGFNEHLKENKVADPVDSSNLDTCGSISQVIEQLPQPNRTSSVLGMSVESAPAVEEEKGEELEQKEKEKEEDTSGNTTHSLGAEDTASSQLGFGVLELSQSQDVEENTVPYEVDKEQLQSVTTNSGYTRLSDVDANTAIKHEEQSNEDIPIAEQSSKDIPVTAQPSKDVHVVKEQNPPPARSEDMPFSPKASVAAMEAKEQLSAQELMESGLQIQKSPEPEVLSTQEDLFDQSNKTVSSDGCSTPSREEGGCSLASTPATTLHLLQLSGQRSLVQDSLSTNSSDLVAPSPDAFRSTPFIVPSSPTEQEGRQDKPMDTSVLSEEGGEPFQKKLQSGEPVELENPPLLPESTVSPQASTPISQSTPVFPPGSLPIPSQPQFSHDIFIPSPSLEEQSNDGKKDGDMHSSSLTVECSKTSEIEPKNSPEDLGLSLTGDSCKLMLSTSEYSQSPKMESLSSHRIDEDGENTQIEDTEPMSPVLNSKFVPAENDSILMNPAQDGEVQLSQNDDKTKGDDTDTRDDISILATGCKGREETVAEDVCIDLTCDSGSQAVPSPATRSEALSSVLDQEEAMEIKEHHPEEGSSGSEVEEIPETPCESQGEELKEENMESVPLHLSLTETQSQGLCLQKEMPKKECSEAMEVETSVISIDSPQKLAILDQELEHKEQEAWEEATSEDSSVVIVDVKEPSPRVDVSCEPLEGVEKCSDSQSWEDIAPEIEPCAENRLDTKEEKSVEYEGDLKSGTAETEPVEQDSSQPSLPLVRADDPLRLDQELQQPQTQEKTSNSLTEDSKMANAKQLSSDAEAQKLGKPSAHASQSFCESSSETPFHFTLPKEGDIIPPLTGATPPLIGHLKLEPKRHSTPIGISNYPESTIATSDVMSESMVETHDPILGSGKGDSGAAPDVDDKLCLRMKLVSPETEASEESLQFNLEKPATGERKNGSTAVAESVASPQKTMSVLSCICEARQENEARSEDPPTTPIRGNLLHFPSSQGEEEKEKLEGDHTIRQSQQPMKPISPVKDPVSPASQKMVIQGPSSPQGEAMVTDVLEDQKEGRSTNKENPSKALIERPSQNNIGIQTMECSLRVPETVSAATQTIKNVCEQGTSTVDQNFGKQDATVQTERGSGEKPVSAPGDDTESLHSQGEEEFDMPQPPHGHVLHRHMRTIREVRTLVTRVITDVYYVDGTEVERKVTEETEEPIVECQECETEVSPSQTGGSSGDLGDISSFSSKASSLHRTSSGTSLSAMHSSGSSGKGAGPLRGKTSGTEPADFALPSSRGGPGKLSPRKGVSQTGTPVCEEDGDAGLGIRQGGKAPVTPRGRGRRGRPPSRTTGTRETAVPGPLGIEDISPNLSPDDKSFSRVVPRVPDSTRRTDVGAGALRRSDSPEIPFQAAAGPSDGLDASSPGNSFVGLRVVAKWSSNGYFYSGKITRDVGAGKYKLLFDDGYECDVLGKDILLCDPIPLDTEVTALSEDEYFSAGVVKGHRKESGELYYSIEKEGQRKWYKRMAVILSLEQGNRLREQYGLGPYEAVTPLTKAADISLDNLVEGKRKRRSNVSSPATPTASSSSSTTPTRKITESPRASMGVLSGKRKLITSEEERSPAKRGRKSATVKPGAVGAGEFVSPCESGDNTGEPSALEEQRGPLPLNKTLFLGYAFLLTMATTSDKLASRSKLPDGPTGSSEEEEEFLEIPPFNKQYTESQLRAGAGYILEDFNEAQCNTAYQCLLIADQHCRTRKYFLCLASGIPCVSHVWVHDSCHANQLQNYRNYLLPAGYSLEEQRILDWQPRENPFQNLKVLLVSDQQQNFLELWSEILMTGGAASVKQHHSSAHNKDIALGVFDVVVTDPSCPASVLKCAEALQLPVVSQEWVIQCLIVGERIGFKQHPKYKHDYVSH
UniProt P54198: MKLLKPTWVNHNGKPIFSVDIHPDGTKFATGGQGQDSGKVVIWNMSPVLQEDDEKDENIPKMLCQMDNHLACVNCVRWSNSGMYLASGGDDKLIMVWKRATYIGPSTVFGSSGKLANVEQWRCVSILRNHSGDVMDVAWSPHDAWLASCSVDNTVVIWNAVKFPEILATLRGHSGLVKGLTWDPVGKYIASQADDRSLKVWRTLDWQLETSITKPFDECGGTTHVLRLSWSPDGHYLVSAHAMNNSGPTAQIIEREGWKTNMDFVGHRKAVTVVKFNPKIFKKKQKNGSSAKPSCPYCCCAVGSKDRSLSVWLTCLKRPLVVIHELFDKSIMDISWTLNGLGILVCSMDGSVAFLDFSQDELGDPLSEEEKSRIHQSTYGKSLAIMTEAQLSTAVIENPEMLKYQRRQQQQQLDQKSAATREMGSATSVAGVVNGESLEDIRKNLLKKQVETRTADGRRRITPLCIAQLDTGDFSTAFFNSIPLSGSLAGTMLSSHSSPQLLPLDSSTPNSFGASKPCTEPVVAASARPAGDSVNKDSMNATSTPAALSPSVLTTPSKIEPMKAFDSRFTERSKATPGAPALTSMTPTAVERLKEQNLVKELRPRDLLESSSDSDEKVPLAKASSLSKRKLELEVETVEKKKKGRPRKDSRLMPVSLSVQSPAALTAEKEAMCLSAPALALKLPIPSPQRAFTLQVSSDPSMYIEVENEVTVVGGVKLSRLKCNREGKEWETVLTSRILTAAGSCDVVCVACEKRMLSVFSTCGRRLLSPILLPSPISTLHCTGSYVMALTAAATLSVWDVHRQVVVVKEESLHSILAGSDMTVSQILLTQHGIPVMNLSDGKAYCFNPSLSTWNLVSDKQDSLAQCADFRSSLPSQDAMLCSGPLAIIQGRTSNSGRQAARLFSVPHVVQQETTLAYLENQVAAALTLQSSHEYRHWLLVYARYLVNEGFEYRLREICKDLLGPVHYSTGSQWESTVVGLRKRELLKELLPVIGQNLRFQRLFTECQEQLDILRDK
UniProt Q9NVP2: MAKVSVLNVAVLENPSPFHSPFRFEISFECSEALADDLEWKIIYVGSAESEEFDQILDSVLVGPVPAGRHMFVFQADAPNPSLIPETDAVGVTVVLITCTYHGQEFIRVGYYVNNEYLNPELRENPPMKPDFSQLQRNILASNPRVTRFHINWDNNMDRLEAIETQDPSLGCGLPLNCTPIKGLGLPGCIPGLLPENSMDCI

The substances below were run against SFB-tagged endogenous RIF1 (replication timing regulatory factor 1), N-terminal knock-in (human) (UniProt Q5UIP0) (assay: affinity purification with mass spectrometry; tandem affinity purification (streptavidin beads, biotin elution, S-protein beads) of SFB-tagged endogenous RIF1 from 293T knock-in cells; NETN buffer (250 mM NaCl, 1 mM EDTA, 20 mM Tris-HCl pH 8.0, 0.5% NP-40); soluble and chromatin fractions; 4 °C).

Substance	binding
PPP1CB (PP1 phosphatase isoform) (from UniProt P62140 1-327) (enzyme)	binds
endogenous ASF1A (from UniProt Q9Y294 1-204)	binds

Further lines, results first:

binding	Substance
binds	PPP1CA (PP1 phosphatase isoform) (from UniProt P62136 1-330) (enzyme)
binds	PPP1CC (PP1 phosphatase isoform) (from UniProt P36873 1-323) (enzyme)
binds	TP53BP1 (from UniProt Q12888 1-1972)
binds	Tousled-like kinase TLK1 (from UniProt Q9UKI8 1-766) (enzyme)

The substances below were run against SFB-tagged ASF1A, full length (human) (UniProt Q9Y294) (assay: affinity purification with mass spectrometry; tandem affinity purification (streptavidin beads, biotin elution, S-protein beads) of overexpressed N-terminal SFB-tagged ASF1A or ASF1B from 293T whole cell lysates; NETN buffer with turbonuclease; 4 °C).

binding	Substance
binds	HIRA (from UniProt P54198 1-1017)
binds	endogenous RIF1 (replication timing regulatory factor 1) (from UniProt Q5UIP0-2 1-2446)

Each substance was assayed against SFB-tagged ASF1B, full length (human) (UniProt Q9NVP2) in the same assay as above.

binding	Substance
binds	endogenous RIF1 (replication timing regulatory factor 1) (from UniProt Q5UIP0-2 1-2446)
